Measurements reported in PubChem BioAssay AID1259405 (NCATS, 2018)
Purpose: 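Mouse-designed siRNAs used to find CHO productivity engineering targets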 (primary screen). Cell system: Chinese hamster CHO-K1 ovary cells with stable secreted eGFP expression. Reagents: single siRNA against mouse genes, 0.8 pmol siRNA per well (2 µl of 400 nM stock). Time to read-out: 3 days. Measured: 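Per-well intracellular GFP measured by laser scanning cytometry, plus viability from ATP luminescence, each relative to plate median of non-targeting control wells, in %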. Direction: GFP, % of control: higher = more GFP per well, higher productivity; viability (ATP), % of control: higher = more viable cells (more ATP). Active means: 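a knock-down is called active if GFP reaches 120% or more of non-targeting control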.
This is an unselected part of about 50,000 deposited reagents. About 4,000 of them (8%) were called active. 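Mouse siRNA library applied to hamster cells; one well for each siRNA.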 Unmarked entries are inactive. Reagents against one gene are numbered here.

Oxa1l (oxidase assembly 1-like) #1 scored GFP, % of control 75; viability (ATP), % of control 75.7.
For Oxa1l (oxidase assembly 1-like) #2 the deposit lists GFP, % of control 110; viability (ATP), % of control 94.1.
Depletion of Oxa1l (oxidase assembly 1-like) #3 came out at: GFP, % of control 121 (active); viability (ATP), % of control 92.3.
Rasl10a (RAS-like, family 10, member A) #1 showed GFP, % of control 69; viability (ATP), % of control 57.
For Rasl10a (RAS-like, family 10, member A) #2, the values are GFP, % of control 56.1; viability (ATP), % of control 60.7.
Knock-down of Rasl10a (RAS-like, family 10, member A) #3 gave: GFP, % of control 80.5; viability (ATP), % of control 81.3.
For Trem3 (triggering receptor expressed on myeloid cells 3) #1, the entry reads GFP, % of control 91.3; viability (ATP), % of control 83.6.
Trem3 (triggering receptor expressed on myeloid cells 3) #2 showed GFP, % of control 103; viability (ATP), % of control 86.9.
Trem3 (triggering receptor expressed on myeloid cells 3) #3 gave GFP, % of control 67.3; viability (ATP), % of control 104.
For F11r (F11 receptor) #1, the values are GFP, % of control 84; viability (ATP), % of control 85.6.
After knock-down of F11r (F11 receptor) #2 the results were GFP, % of control 120 (active); viability (ATP), % of control 60.7.
Knock-down of F11r (F11 receptor) #3 gave: GFP, % of control 81.8; viability (ATP), % of control 87.4.
For Wnt5b (WNT family member 5B) #1, the values are GFP, % of control 51.3; viability (ATP), % of control 53.3.
Wnt5b (WNT family member 5B) #2 scored GFP, % of control 85.5; viability (ATP), % of control 54.3.
With knock-down of Wnt5b (WNT family member 5B) #3 the results were GFP, % of control 65.5; viability (ATP), % of control 61.9.
For Zfp28 (zinc finger protein 28) #1, the entry reads GFP, % of control 47.6; viability (ATP), % of control 66.2.
After knock-down of Zfp28 (zinc finger protein 28) #2 the results were GFP, % of control 118; viability (ATP), % of control 84.1.

Called active, among the entries above:
Oxa1l (oxidase assembly 1-like) #3 → GFP, % of control: 121 (active); viability (ATP), % of control: 92.3
F11r (F11 receptor) #2 → GFP, % of control: 120 (active); viability (ATP), % of control: 60.7
